The results in this text go back to publication PMC11134742.

Protein sequences, listed by entry. Tags and fused reporters are not part of them.
UniProt Q9C0J9: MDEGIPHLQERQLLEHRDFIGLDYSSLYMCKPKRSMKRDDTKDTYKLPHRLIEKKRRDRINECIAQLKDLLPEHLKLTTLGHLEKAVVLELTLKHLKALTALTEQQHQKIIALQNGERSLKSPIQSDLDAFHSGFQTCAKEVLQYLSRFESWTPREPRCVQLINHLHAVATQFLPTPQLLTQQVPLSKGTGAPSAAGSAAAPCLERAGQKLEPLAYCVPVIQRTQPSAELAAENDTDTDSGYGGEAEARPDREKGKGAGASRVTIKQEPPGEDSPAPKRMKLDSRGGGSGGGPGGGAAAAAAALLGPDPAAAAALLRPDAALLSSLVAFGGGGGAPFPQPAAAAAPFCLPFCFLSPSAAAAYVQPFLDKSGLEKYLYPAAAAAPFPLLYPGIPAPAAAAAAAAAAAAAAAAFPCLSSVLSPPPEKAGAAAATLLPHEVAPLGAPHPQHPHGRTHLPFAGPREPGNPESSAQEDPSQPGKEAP

Results are given in words; binding and its absence hold for the method and conditions named. In cells and extracts the contact can be indirect. Some binding calls cover weakened binding; strength is not graded here. For part of these data: Where a sequence is shown, tags or fusion partners need not be part of it.

For test [1], the target named is T1, Pyrroline-5-carboxylate reductase 1 (PYCR1), endogenous (human (endogenous in T24)) (UniProt P32322).
T1 sequence: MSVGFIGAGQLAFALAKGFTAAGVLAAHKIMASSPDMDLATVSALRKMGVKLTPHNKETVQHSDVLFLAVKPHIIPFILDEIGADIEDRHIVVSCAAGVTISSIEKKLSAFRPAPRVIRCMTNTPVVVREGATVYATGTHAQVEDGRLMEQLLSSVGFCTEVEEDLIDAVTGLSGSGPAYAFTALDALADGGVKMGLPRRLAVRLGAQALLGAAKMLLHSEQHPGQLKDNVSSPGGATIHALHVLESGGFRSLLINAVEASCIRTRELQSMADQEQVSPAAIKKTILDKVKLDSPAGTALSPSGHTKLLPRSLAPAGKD
The test is described as follows: co-IP; endogenous proteins in T24 cell lysate; anti-BHLHE41 or anti-PYCR1 antibody on Protein G-agarose beads, overnight at 4 °C, IP-lysis buffer (Pierce Co-Immunoprecipitation Kit); western blot. (Immunoblotting shows a protein as a band on a membrane.)

Test [2] has as its target Basic helix-loop-helix family member e41 (BHLHE41), endogenous (human (endogenous in T24)) (UniProt Q9C0J9). The description is as above.
Test [3] has as its target Flag-BHLHE41 (human) (UniProt Q9C0J9). The test is described as follows: co-IP; 293T cells co-transfected with Flag-BHLHE41 and HA-PYCR1; immunoprecipitation with anti-Flag on Protein G-agarose beads, overnight at 4 °C, IP-lysis buffer; western blot.

Regarding “Basic helix-loop-helix family member e41 (BHLHE41), endogenous (from UniProt Q9C0J9 1-482)”, in test [1], the binding entry is on record as “binds”.

B1: Pyrroline-5-carboxylate reductase 1 (PYCR1), endogenous (protein, UniProt P32322 1-319)
chain: T1 sequence
Take B1: the binding result in test [2] is reported as “binds”.

B2: HA-PYCR1 (protein, UniProt P32322 1-319)
chain: T1 sequence
With B2, the binding entry in test [3] was “binds”.
